Results from patent US20260124311A1, “POLYMER-DRUG CONJUGATES FOR STING PATHWAY ACTIVATION” (Vanderbilt University, priority 2022, published 2026).
Some entries share one result that the patent states for a list of compounds.

The chains behind the UniProt entries cited, without tags or fusion partners.
UniProt Q86WV6, whole entry R71H/G230A/H232R/R293Q: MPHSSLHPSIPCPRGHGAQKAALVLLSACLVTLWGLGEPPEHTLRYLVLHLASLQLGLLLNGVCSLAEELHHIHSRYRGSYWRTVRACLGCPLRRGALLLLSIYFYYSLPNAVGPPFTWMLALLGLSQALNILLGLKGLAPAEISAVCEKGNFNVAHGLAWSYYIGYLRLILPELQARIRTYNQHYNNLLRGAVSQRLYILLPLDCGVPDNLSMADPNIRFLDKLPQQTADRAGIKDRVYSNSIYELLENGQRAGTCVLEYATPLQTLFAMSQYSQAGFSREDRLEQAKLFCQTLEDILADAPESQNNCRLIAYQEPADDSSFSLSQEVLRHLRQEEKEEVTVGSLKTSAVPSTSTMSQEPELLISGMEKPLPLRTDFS

Target: T1, STING (Homo sapiens, UniProt Q86WV6, G230A/H232R/R293Q/R71H)
T1 construct: host or cells: THP1-Dual cells
Experiment: THP1-Dual reporter assay (IRF-luciferase, Quanti-Luc) for activation of STING
Assay type: cell-based
Conditions: qualitative comparison of dose-response curves

## C#CCOC(=O)C1OC(OC(=O)Nc2ccc(COC(=O)NCCCOc3cc(C(N)=O)cc4nc(NC(=O)c5cc(C)nn5CC)n(C/C=C/Cn5c(NC(=O)c6cc(C)nn6CC)nc6cc(C(N)=O)cc(OC)c65)c34)cc2)C(O)C(O)C1O (stereo not shown) [Alkyne-βGlu-mono-PAB-diABZI (5), Alkyne-βGlu-mono-PAB-diABZI]
  STING activation / interferon production in THP-1 Dual reporter cells, in words: increase in spacer length appeared to correlate with improved STING activation
